Experimental data published in article PMC8904830, “Differential recognition of canonical NF-κB dimers by Importin α3” (Nature Communications, 2022).
Results are given in words; binding and its absence hold for the method and conditions named. Some entries that bind do so weakly or less than the wild type.

Chains of the proteins cited; added tags and fusions are not shown. Lines headed by an entry give the natural chain unless they say otherwise; changes in a name come on top.
UniProt P19838: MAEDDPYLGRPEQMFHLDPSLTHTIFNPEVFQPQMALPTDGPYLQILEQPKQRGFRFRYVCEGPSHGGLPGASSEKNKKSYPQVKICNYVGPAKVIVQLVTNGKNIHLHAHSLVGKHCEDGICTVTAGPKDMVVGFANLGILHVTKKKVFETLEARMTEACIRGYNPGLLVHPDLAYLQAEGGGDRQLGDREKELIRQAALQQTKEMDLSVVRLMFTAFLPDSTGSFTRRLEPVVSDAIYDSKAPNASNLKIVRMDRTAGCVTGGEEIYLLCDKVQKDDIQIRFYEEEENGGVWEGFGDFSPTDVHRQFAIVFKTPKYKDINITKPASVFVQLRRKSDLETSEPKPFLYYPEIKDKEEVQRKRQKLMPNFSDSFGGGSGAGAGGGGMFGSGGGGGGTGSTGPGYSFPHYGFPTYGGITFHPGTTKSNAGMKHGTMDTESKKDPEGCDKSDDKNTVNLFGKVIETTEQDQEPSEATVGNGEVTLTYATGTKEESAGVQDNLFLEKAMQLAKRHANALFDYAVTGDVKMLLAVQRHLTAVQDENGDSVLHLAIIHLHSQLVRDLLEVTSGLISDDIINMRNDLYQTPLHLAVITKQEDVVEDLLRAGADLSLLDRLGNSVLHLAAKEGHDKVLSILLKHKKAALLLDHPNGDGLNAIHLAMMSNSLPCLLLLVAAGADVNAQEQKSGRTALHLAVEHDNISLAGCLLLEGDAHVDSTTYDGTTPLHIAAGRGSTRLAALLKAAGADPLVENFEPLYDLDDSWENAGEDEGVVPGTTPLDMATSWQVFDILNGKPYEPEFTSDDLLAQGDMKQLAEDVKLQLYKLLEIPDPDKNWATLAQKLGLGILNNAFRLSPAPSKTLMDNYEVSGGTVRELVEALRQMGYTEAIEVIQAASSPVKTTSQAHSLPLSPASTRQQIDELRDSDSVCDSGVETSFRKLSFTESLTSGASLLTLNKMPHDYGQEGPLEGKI

Biological target: T1, NF-κB p50/p65 heterodimer (human, UniProt P19838 1-366; Q04206 1-306)
T1 construct: NF-κB p50, human, residues 1-366; NF-κB p65 (RelA), human, residues 1-306, untagged; also called wild-type NF-κB; source: subunits from E. coli BL21 DE3, purified; assembled by incubating p50:p65 at 1:1.5 molar ratio; copies: 1 + 1
Experiment: native gel or EMSA; competition: purified ΔIBB-importin α3 titrated (up to ~54 μM) against ~130 pmoles of pre-formed p50/p65:IκBα (Fig. 4b lanes 11-16); 1.5% agarose gel; both purified

binding: binds
B1: IκBα (residues 67-287) (domain or fragment, UniProt P25963 67-287, looked up)
chain: KQQLTEDGDSFLHLAIIHEEKALTMEVIRQVKGDLAFLNFQNNLQQTPLHLAVITNQPEIAEALLGAGCDPELRDFRGNTPLHLACEQGCLASVGVLTQSCTTPHLHSILKATNYNGHTCLHLASIHGYLGIVELLVSLGADVNAQEPCNGRTALHLAVDLQNPDLVSLLLKCGADVNRVTYQGYSPYQLTWGRPSTRIQQQLGQLTLENLQMLPESEDEE
notes: IκBα, residues 67-287, untagged; source: recombinant, expressed and purified as previously described (pET-11a)
